Measured values reported in PMC10703791.

The chains behind the UniProt entries cited, without tags or fusion partners. Where a name states a change or a piece, a line headed by the entry shows the natural chain unless it says otherwise.
UniProt Q62035: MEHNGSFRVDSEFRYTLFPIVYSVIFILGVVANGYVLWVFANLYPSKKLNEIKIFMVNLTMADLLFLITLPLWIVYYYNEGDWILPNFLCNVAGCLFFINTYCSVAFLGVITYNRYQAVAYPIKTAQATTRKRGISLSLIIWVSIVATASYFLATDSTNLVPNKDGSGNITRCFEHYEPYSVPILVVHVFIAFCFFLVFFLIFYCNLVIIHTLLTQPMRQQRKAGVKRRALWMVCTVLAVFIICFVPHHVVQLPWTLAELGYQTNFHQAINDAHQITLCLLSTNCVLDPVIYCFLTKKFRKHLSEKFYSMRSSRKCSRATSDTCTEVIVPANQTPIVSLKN
UniProt P55086: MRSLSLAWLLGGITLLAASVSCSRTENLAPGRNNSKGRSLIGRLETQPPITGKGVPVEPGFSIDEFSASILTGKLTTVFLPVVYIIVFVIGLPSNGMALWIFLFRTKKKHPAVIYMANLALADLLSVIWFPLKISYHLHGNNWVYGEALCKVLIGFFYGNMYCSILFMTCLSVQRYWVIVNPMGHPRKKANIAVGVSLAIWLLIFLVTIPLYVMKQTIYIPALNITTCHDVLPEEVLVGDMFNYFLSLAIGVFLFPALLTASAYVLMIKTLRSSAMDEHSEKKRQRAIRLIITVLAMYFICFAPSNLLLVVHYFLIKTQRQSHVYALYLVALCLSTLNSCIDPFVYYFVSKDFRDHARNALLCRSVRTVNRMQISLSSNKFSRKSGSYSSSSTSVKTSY

Target: Platelet-activating factor receptor (mouse (endogenous in RAW 264.7)) (UniProt Q62035)
Experiment: co-IP; RAW 264.7 lysates in RIPA buffer (100 ug protein); anti-PAFR antibody on Protein A/G magnetic beads, overnight at 4 °C; blot with anti-PAR2 and anti-PAFR; cells treated for 20 min with PBS, C-PAF (100 nM), SLIGRL-NH2 (50 uM) or both; normal rabbit IgG as control

For “Protease-activated receptor 2 (from UniProt P55086)”, the binding was “binds”.

No constants are given. Whether binding was seen depends on the method and setting. Binding seen in cells or lysates may run through a third protein. A result given as binding can be weak or reduced; the word gives no strength.
